# Laboratory results taken from PMC10567733, “C9orf72-catalyzed GTP loading of Rab39A enables HOPS-mediated membrane tethering and fusion in mammalian autophagy” (Nature Communications, 2023).
# T1: ZZ–3 × Flag-STX17, P56962
# T1 chain: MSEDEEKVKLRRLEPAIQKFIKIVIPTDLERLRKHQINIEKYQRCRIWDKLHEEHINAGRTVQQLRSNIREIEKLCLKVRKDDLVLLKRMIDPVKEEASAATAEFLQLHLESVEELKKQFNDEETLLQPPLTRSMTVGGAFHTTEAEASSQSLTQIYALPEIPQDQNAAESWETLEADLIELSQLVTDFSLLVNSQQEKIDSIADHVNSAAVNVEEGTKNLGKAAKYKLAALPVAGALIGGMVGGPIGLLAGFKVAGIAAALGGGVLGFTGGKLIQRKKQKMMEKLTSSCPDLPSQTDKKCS
# B1: VAMP8 found with STX17 by TAP-MS, Q9BV40 1-100 (protein)
# chain: MEEASEGGGNDRVRNLQSEVEGVKNIMTQNVERILARGENLEHLRNKTEDLEATSEHFKTTSQKVARKFWWKNVKMIVLICVIVFIIILFIVLFATGAFS
# B2: YKT6 found with STX17 by TAP-MS (protein, UniProt O15498 1-198)
# chain: MKLYSLSVLYKGEAKVVLLKAAYDVSSFSFFQRSSVQEFMTFTSQLIVERSSKGTRASVKEQDYLCHVYVRNDSLAGVVIADNEYPSRVAFTLLEKVLDEFSKQVDRIDWPVGSPATIHYPALDGHLSRYQNPREADPMTKVQAELDETKIILHNTMESLLERGEKLDDLVSKSEVLGTQSKAFYKTARKQNSCCAIM
# B3: VPS16 found with STX17 by TAP-MS (protein, UniProt Q9H269 1-839)
# chain: MDCYTANWNPLGDSAFYRKYELYSMDWDLKEELRDCLVAAAPYGGPIALLRNPWRKEKAASVRPVLDIYSASGMPLASLLWKSGPVVSLGWSAEEELLCVQEDGAVLVYGLHGDFRRHFSMGNEVLQNRVLDARIFHTEFGSGVAILTGAHRFTLSANVGDLKLRRMPEVPGLQSAPSCWTVLCQDRVAHILLAVGPDLYLLDHAACSAVTPPGLAPGVSSFLQMAVSFTYRHLALFTDTGYIWMGTASLKEKLCEFNCNIRAPPKQMVWCSRPRSKERAVVVAWERRLMVVGDAPESIQFVLDEDSYLVPELDGVRIFSRSTHEFLHEVPAASEEIFKIASMAPGALLLEAQKEYEKESQKADEYLREIQELGQLTQAVQQCIEAAGHEHQPDMQKSLLRAASFGKCFLDRFPPDSFVHMCQDLRVLNAVRDYHIGIPLTYSQYKQLTIQVLLDRLVLRRLYPLAIQICEYLRLPEVQGVSRILAHWACYKVQQKDVSDEDVARAINQKLGDTPGVSYSDIAARAYGCGRTELAIKLLEYEPRSGEQVPLLLKMKRSKLALSKAIESGDTDLVFTVLLHLKNELNRGDFFMTLRNQPMALSLYRQFCKHQELETLKDLYNQDDNHQELGSFHIRASYAAEERIEGRVAALQTAADAFYKAKNEFAAKATEDQMRLLRLQRRLEDELGGQFLDLSLHDTVTTLILGGHNKRAEQLARDFRIPDKRLWWLKLTALADLEDWEELEKFSKSKKSPIGYLPFVEICMKQHNKYEAKKYASRVGPEQKVKALLLVGDVAQAADVAIEHRNEAELSLVLSHCTGATDGATADKIQRARAQAQKK
# B4: GST-Rab39A (natural protein, human, UniProt Q14964 1-217, looked up)
# chain: METIWIYQFRLIVIGDSTVGKSCLLHRFTQGRFPGLRSPACDPTVGVDFFSRLLEIEPGKRIKLQLWDTAGQERFRSITRSYYRNSVGGFLVFDITNRRSFEHVKDWLEEAKMYVQPFRIVFLLVGHKCDLASQRQVTREEAEKLSADCGMKYIETSAKDATNVEESFTILTRDIYELIKKGEICIQDGWEGVKSGFVPNTVHSSEEAVKPRKECFC
# notes: Rab39A, human, cloned from human cDNA; unprenylated; also called GST-R39A; purified Rab39A; source: E. coli BL21 (DE3), purified (Glutathione Sepharose); not shown: GST, N-terminal, kept
# Assays:
# [1] = target: T1, ZZ–3 × Flag-STX17, P56962; assay: affinity purification with mass spectrometry; TAP-MS: ZZ-3xFlag-STX17 from stable 293T TetR cells; IgG beads, TEV cleavage, anti-FLAG beads, FLAG peptide elution; bands cut from a silver-stained gel; conditions: remark: other sources report otherwise
# ZZ–3 × Flag-STX17 = ZZ–3 × Flag-STX17 (UniProt P56962); assay: as above
Binder,binding [1],binding (ZZ–3 × Flag-STX17)
B1,binds,
B2,,binds
B3,,binds
B4,,binds

# Results are given in words; binding and its absence hold for the method and conditions named. Binding seen in cells or lysates may run through a third protein. These calls come from enrichment with a bait or labelling near it, and not all partners need be listed. For some of these results: Tags and fused reporters may be left off the sequences shown.
